Article PMC5425473
These are yes or no findings as the source states them, for the method shown.

Sequences of proteins named here, by UniProt entry; tags and fusion partners are left off. Residues count along the entry.
UniProt Q64735, residues 41-483: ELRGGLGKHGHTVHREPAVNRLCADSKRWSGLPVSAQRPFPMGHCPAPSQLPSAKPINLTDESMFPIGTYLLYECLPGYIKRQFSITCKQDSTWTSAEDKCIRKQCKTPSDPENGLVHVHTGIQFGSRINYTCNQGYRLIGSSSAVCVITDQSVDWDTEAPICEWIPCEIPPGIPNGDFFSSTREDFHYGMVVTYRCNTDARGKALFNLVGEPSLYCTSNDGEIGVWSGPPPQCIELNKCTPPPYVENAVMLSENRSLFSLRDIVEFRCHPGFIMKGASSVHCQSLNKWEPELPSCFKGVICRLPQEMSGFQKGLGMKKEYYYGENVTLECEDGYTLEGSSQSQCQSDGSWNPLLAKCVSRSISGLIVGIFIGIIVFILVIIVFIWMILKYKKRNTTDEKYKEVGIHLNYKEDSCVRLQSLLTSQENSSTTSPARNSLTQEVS

Assays:
Assay in all cases: flow cytometry on cells; lymph node or spleen cells of wild-type, CD55-/-, Crry-/- and CD59a-/- mice incubated with Pra1 (10 μg/ml) in PBS at 37°C, with or without ZnCl2; bound Pra1 detected with rabbit anti-Pra1 antiserum; gated on CD4+ T cells; Pra1 staining compared between wild-type and knock-out cells; only the binder purified
[1] = biological target: T1, CD59a, mouse complement regulatory protein (mouse (endogenous in splenic CD4+ T cells)) (UniProt O55186)
T1 sequence: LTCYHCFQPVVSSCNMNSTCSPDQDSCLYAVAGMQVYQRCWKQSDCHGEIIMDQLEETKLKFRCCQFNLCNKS

[2] = biological target: Crry, mouse complement regulatory protein (mouse (endogenous in splenic CD4+ T cells)) (UniProt Q64735)
[3] = biological target: T2, CD55, mouse complement regulatory protein (mouse (endogenous in lymph node CD4+ T cells)) (UniProt Q61475)
T2 sequence: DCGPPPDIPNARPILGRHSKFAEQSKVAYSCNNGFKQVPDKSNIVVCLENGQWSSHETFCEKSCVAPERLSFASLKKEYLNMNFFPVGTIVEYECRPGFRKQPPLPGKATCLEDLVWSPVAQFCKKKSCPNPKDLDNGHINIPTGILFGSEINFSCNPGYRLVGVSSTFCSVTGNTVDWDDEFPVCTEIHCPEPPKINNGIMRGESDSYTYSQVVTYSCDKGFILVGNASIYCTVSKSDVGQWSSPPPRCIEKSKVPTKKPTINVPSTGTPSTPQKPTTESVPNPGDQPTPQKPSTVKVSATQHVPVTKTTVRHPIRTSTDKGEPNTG

Measured: binding

B1: pH-regulated antigen 1 (Pra1) from Candida albicans, recombinant wild type (protein, UniProt P87020 16-299)
chain: APVTVTRFVDASPTGYDWRADWVKGFPIDSSCNATQYNQLSTGLQEAQLLAEHARDHTLRFGSKSPFFRKYFGNETASAEVVGHFDNVVGADKSSILFLCDDLDDKCKNDGWAGYWRGSNHSDQTIICDLSFVTRRYLTQLCSSGYTVSKSKTNIFWAGDLLHRFWHLKSIGQLVIEHYADTYEEVLELAQENSTYAVRNSNSLIYYALDVYAYDVTIPGEGCNGDGTSYKKSDFSSFEDSDSGSDSGASSTASSSHQHTDSNPSATTDANSHCHTHADGEVHC
no binding (tested: 10 μg/ml): all assays above
